± gives the standard deviation. The entries are a selection whose mix differs from that of the whole data set. Many of these values have a large error.

The test deals with MIWI (PIWIL1) piRISC loaded with L1MC piRNA (30 nt). Put plainly: pre-steady-state target cleavage rate (min^-1); MIWI and MILI are mouse PIWI proteins and EfPiwi is from a freshwater sponge; tags in brackets are library labels; higher = faster piRNA-guided slicing of the target. The conditions noted are these: guide: L1MC piRNA 5'p-UAACUAAAUACUAUGCAAGCUGUAGGUCCU; auxiliary factor: 500 nM mouse GTSF1. In a few lines: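 Cleave-'n-Seq used a transcribed, DNA-blocked target RNA library at 0.1 nM and active affinity-purified piRISC with one synthetic guide at 1 nM, with or without 500 nM GTSF1 partner protein, in HEPES–potassium acetate buffer at 33 °C for 0–8 or 0–960 min. Uncleaved targets were sequenced and normalised to depth and to weakly complementary targets, and three trials were pooled with k3 capped at 0.0001 min^-1. The pre-steady-state cleavage rate was estimated by a burst-and-steady-state fit.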
As to UCCUGGAUGUCCUUGCUUAGUAAUUAGUUA, the “pre-steady-state target cleavage rate” value amounted to 0.00291 ± 0.0048.
Consider UCCUGGUACAGCUUGCAUAGUAUUUAGAUUA, for which the “pre-steady-state target cleavage rate” value amounted to 0.179 ± 0.046.
As for UCCUGGAACUGCAUGCAUAGUAUUUAGUUA, the figure is 0.442 ± 0.035.
The same measure for UCCUGGAACAGCUUGCAUAGUAUUAUGUUA: 0.169 ± 0.023; for UCCUGGAUGUCGUUGCAUUGUAUUUAGUUA: 0.00118 ± 0.007.
The same measure for UCCUGGAUGUGCUUGCAUAGUUUUUAGAAA: 0.0019 ± 0.0073; for UCCUCCAUGAGCUUGCAUAGUAUUUAGUAA: 0.471 ± 0.029; for UCCUGGAUCAGCAUGCAUAGUAUUUAGAUA: 0.375 ± 0.034.
In the case of UCCUGGAUGUGCUUGCAUAGUAUAAAGUAA, the “pre-steady-state target cleavage rate” value came to 0.00523 ± 0.0043.
As for UCCUGGAUCAGCUUGCAUACAUUUUUCAAA, the figure is 0.00114 ± 0.0085.
The same measure for UCCUGGAUCAGGUUCCAUAGUAUUUAGUUA: 0.00405 ± 0.0044; for UCCUGGAUGUCGUAGCAUACUAUUUAGUUA: 0.00121 ± 0.0058.
The same measure for UCCUGCUACAGCUUCGUUAGUAUUUAGAAA: 0.00185 ± 0.0048.
Regarding UCCUGGUACAGCUUGCAUACAUUUUAGUUA, the “pre-steady-state target cleavage rate” value stood at 0.00353 ± 0.0048.
As for UCCUGGAUGAGCUUGCUAGUAUUUAGUUA, the figure is 0.00193 ± 0.0057.
The same measure for UCCUGGAUGUGCUUGCAGUAGUAUUUAGUUA: 0.00172 ± 0.0072; for “UCCUGGAUCAGCUUGCAUAGUAUUUAGUUA [g2:g22:cont:t1A]”: 1.36 ± 0.054; for UCCUGGAACAGCUUGGUAAGUAUUUAGUAA: 0.0019 ± 0.0053.
For the sequence UCCUGGAUGUGCUUCCUUAGUAUUUAGUUA, the “pre-steady-state target cleavage rate” value amounted to 0.00203 ± 0.0073.
As for UCCUCGUACAGCUUGCAUAGUUUUUAGUUA, the figure is 0.478 ± 0.013; as for UCCUGCUUGAGCUUGCAUAGUAUUUAGUAA, 0.491 ± 0.051; as for UCCUCCUACAGCUUACAUAGUAUUUAGUUA, 1.14 ± 0.031.
As for UCCUGGAUGUGCUUGCAAUCUAUUUAGAAA, the figure is 0.000646 ± 0.012; as for UCCUGCUACAGCUUGGAUAGUAUUUUCAAA, 0.0035 ± 0.0045.
As for UCCUGGAUGUGCUUGCAUAUGUAUUUAGUUA, the figure is 0.00129 ± 0.0085; as for UCCUGGAUGUCCUUGCAUAGUACUUUAGUUA, 0.00373 ± 0.0043.
For UCCUGGAUGAGCUUGGUAAGUAUUUAGUUA, the “pre-steady-state target cleavage rate” value came to 0.0012 ± 0.0071.
The same measure for UCCUGGAUGUGCUUGCAUAGCUAUUUAGUUA: 0.00253 ± 0.0058; for UCCUGGAUGUCGUAGCUUAGUAUUUAGUUA: 0.00127 ± 0.0089.
As for UCCUGGAUGUCCUUGCUUAGUAUUUUGUUA, the figure is 0.00363 ± 0.0053; as for UCCUGGAUGUGCUAGCAUAGAAUUUAGUUA, 0.00695 ± 0.0028.
The same measure for UCCUGGAUCUAGCUUGCAUAGUAUUUAGUUA: 0.86 ± 0.04; for UCCUGGAUGUCGAACGAUACUAUUUAGAUA: 0.000104 ± 0.018.
Consider UCCUCCUACAGCUUGCUUAGUAUAUAGUUA, for which the “pre-steady-state target cleavage rate” value was 0.617 ± 0.034.
As to UCCUGGAUCAGCUUGGAUUGUAUUUAGUUA, the “pre-steady-state target cleavage rate” value was determined as 0.00177 ± 0.0055.
As for UCCUGGAUGUCGAAGCAUAGUUUUUUGUUA, the figure is 0.00084 ± 0.0088.
The same measure for UCCUGGAUGAGCUUCCAUAGUUUUUAGUUA: 0.00391 ± 0.0066; for UCCUGGAUGUCGUUGCUAGUAUUUAGUUA: 0.000585 ± 0.014.
The same measure for UCCUGGAUGUCGUUGCAAAGUAUUUAGUAA: 0.000693 ± 0.013; for UCCUGGAUGUCCUAGCUUAGUAUUUAGUUA: 0.00336 ± 0.0044.

Source of the values: the supplement of paper PMC10338343.
